# Results taken from the supplement of paper PMC8728848.
# This is one part of the list.
# B1: Mermaid1 (Stilbonema majum) (protein)
# chain: MGSSHHHHHHSSGLVPRGSHMAASGWLRSPQGTVVKLYRRSLSWSKADEFCKDVDGRLVVDRTADMHLFLIKNVLKEKKSRVWVGLRRTAPHSRTWIWSDGTRQNEDDLDANLWLRDEPNDAAGEEECALFMYSPWEKAWGLNDYLCRGGCRSYQFICEKWIR
# Columns and labels:
# Assay in all cases: glycan array binding signal (z-score within array); higher = stronger binding
# Details in all cases: glycan notation: IUPAC condensed, linker removed
# [1] = biological target: Fuc(a1-2)[Gal(a1-3)]Gal(b1-4)GlcNAc(b1-2)Man(a1-3)[Fuc(a1-2)[Gal(a1-3)]Gal(b1-4)GlcNAc(b1-2)Man(a1-6)]Man(b1-4)GlcNAc(b1-4)[Fuc(a1-6)]GlcNAc
# How it was run: (§1)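 The binding signal is a Z-score computed within each array and averaged over linkers. Arrays of the same protein sequence at different concentrations or buffers were also averaged together. Data originate from 3228 arrays in the Consortium for Functional Glycomics database, kept only where the protein sequence was available.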
# [2] = biological target: Fuc(a1-2)[Gal(a1-3)]Gal(b1-4)GlcNAc(b1-3)GalNAc
# How it was run: as §1
# [3] = biological target: Fuc(a1-2)[Gal(a1-3)]Gal(b1-4)GlcNAc(b1-3)[Fuc(a1-2)[Gal(a1-3)]Gal(b1-4)GlcNAc(b1-6)]GalNAc
# How it was run: as §1
# [4] = biological target: Fuc(a1-2)[Gal(a1-3)]Gal(b1-4)GlcNAc(b1-6)GalNAc
# How it was run: as §1
# [5] = biological target: Fuc(a1-2)[Gal(a1-3)]Gal(b1-4)[Fuc(a1-3)]Glc
# How it was run: as §1
# [6] = biological target: Fuc(a1-2)[Gal(a1-3)]Gal(b1-4)[Fuc(a1-3)]GlcNAc
# How it was run: as §1
# [7] = biological target: Fuc(a1-2)[Gal(a1-3)]Gal(b1-4)[Fuc(a1-3)]GlcNAc(b1-3)GalNAc
# How it was run: as §1
# [8] = biological target: Fuc(a1-2)[Gal(a1-4)]Gal(b1-4)GlcNAc
# How it was run: as §1
# [9] = biological target: Fuc(a1-2)[GalNAc(a1-3)]Gal
# How it was run: as §1
# [10] = biological target: Fuc(a1-2)[GalNAc(a1-3)]Gal(b1-3)GalNAc(a1-3)[Fuc(a1-2)]Gal(b1-4)GlcNAc
# How it was run: as §1
# [11] = biological target: Fuc(a1-2)[GalNAc(a1-3)]Gal(b1-3)GalNAc(b1-3)Gal(a1-4)Gal(b1-4)Glc
# How it was run: as §1
# [12] = biological target: Fuc(a1-2)[GalNAc(a1-3)]Gal(b1-3)GlcNAc
# How it was run: as §1
# [13] = biological target: Fuc(a1-2)[GalNAc(a1-3)]Gal(b1-3)GlcNAc(b1-2)Man(a1-3)[Fuc(a1-2)[GalNAc(a1-3)]Gal(b1-3)GlcNAc(b1-2)Man(a1-6)]Man(b1-4)GlcNAc(b1-4)GlcNAc
# How it was run: as §1
# [14] = biological target: Fuc(a1-2)[GalNAc(a1-3)]Gal(b1-3)GlcNAc(b1-2)Man(a1-3)[Fuc(a1-2)[GalNAc(a1-3)]Gal(b1-3)GlcNAc(b1-2)Man(a1-6)]Man(b1-4)GlcNAc(b1-4)[Fuc(a1-6)]GlcNAc
# How it was run: as §1
# [15] = biological target: Fuc(a1-2)[GalNAc(a1-3)]Gal(b1-3)GlcNAc(b1-3)GalNAc
# How it was run: as §1
# [16] = biological target: Fuc(a1-2)[GalNAc(a1-3)]Gal(b1-3)GlcNAc(b1-6)GalNAc
# How it was run: as §1
# [17] = biological target: Fuc(a1-2)[GalNAc(a1-3)]Gal(b1-4)Glc
# How it was run: as §1
# [18] = biological target: Fuc(a1-2)[GalNAc(a1-3)]Gal(b1-4)GlcNAc
# How it was run: as §1
# [19] = biological target: Fuc(a1-2)[GalNAc(a1-3)]Gal(b1-4)GlcNAc(b1-2)Man
# How it was run: as §1
# [20] = biological target: Fuc(a1-2)[GalNAc(a1-3)]Gal(b1-4)GlcNAc(b1-2)Man(a1-3)[Fuc(a1-2)[GalNAc(a1-3)]Gal(b1-4)GlcNAc(b1-2)Man(a1-6)]Man(b1-4)GlcNAc(b1-4)GlcNAc
# How it was run: as §1
# [21] = biological target: Fuc(a1-2)[GalNAc(a1-3)]Gal(b1-4)GlcNAc(b1-2)Man(a1-3)[Fuc(a1-2)[GalNAc(a1-3)]Gal(b1-4)GlcNAc(b1-2)Man(a1-6)]Man(b1-4)GlcNAc(b1-4)[Fuc(a1-6)]GlcNAc
# How it was run: as §1
# [22] = biological target: Fuc(a1-2)[GalNAc(a1-3)]Gal(b1-4)GlcNAc(b1-3)Gal(b1-4)GlcNAc
# How it was run: as §1
# [23] = biological target: Fuc(a1-2)[GalNAc(a1-3)]Gal(b1-4)GlcNAc(b1-3)Gal(b1-4)GlcNAc(b1-3)Gal(b1-4)GlcNAc
# How it was run: as §1
# [24] = biological target: Fuc(a1-2)[GalNAc(a1-3)]Gal(b1-4)GlcNAc(b1-3)GalNAc
# How it was run: as §1
# [25] = biological target: Fuc(a1-2)[GalNAc(a1-3)]Gal(b1-4)GlcNAc(b1-3)[Fuc(a1-2)[GalNAc(a1-3)]Gal(b1-4)GlcNAc(b1-6)]GalNAc
# How it was run: as §1
# [26] = biological target: Fuc(a1-2)[GalNAc(a1-3)]Gal(b1-4)GlcNAc(b1-6)GalNAc
# How it was run: as §1
# [27] = biological target: Fuc(a1-2)[GalNAc(a1-3)]Gal(b1-4)[Fuc(a1-3)]GlcNAc
# How it was run: as §1
# [28] = biological target: Fuc(a1-2)[GalNAc(a1-3)]Gal(b1-4)[Fuc(a1-3)]GlcNAc(b1-3)GalNAc
# How it was run: as §1
# [29] = biological target: Fuc(a1-2)[GalNAc(a1-4)]Gal(b1-4)GlcNAc
# How it was run: as §1
# [30] = biological target: Fuc(a1-2)[GalNAc(b1-3)]Gal
# How it was run: as §1
# [31] = biological target: Fuc(a1-3)GlcNAc
# How it was run: as §1
# [32] = biological target: Fuc(a1-3)[Gal(b1-4)]Glc6S
# How it was run: as §1
# [33] = biological target: Fuc(a1-3)[Gal(b1-4)]GlcNAc
# How it was run: as §1
# [34] = biological target: Fuc(a1-3)[Gal(b1-4)]GlcNAc(b1-2)Man
# How it was run: as §1
# [35] = biological target: Fuc(a1-3)[Gal(b1-4)]GlcNAc(b1-2)Man(a1-3)[Fuc(a1-3)[Gal(b1-4)]GlcNAc(b1-2)Man(a1-6)]Man(b1-4)GlcNAc(b1-4)GlcNAc
# How it was run: as §1
# [36] = biological target: Fuc(a1-3)[Gal(b1-4)]GlcNAc(b1-2)Man(a1-3)[Fuc(a1-3)[Gal(b1-4)]GlcNAc(b1-2)Man(a1-6)]Man(b1-4)GlcNAc(b1-4)[Fuc(a1-6)]GlcNAc
# How it was run: as §1
# [37] = biological target: Fuc(a1-3)[Gal(b1-4)]GlcNAc(b1-3)Gal(b1-3)[Fuc(a1-4)]GlcNAc
# How it was run: as §1
# [38] = biological target: Fuc(a1-3)[Gal(b1-4)]GlcNAc(b1-3)Gal(b1-4)[Fuc(a1-3)]GlcNAc
# How it was run: as §1
# [39] = biological target: Fuc(a1-3)[Gal(b1-4)]GlcNAc(b1-3)Gal(b1-4)[Fuc(a1-3)]GlcNAc(b1-3)Gal(b1-4)[Fuc(a1-3)]GlcNAc
# How it was run: as §1
# [40] = biological target: Fuc(a1-3)[Gal(b1-4)]GlcNAc(b1-3)GalNAc
# How it was run: as §1
# [41] = biological target: Fuc(a1-3)[Gal(b1-4)]GlcNAc(b1-6)GalNAc
# How it was run: as §1
# [42] = biological target: Fuc(a1-3)[Gal(b1-4)]GlcNAc(b1-6)[Gal(b1-3)GlcNAc(b1-3)]Gal(b1-4)Glc
# How it was run: as §1
# [43] = biological target: Fuc(a1-3)[Gal(b1-4)]GlcNAc6S
# How it was run: as §1
# [44] = biological target: Fuc(a1-3)[Gal3S(b1-4)]Glc
# How it was run: as §1
# [45] = biological target: Fuc(a1-3)[Gal3S(b1-4)]GlcNAc
# How it was run: as §1
binder,measurement,setting,value
B1,glycan array binding signal (z-score),[1],-0.514
same,glycan array binding signal (z-score),[2],0.09
same,glycan array binding signal (z-score),[3],-0.741
same,glycan array binding signal (z-score),[4],-0.122
same,glycan array binding signal (z-score),[5],0.038
same,glycan array binding signal (z-score),[6],-0.646
same,glycan array binding signal (z-score),[7],-0.262
same,glycan array binding signal (z-score),[8],1.5
same,glycan array binding signal (z-score),[9],-0.62
same,glycan array binding signal (z-score),[10],-0.5
same,glycan array binding signal (z-score),[11],-0.659
same,glycan array binding signal (z-score),[12],-0.629
same,glycan array binding signal (z-score),[13],-0.816
same,glycan array binding signal (z-score),[14],-0.569
same,glycan array binding signal (z-score),[15],-0.713
same,glycan array binding signal (z-score),[16],-0.028
same,glycan array binding signal (z-score),[17],-0.74
same,glycan array binding signal (z-score),[18],-0.299
same,glycan array binding signal (z-score),[19],0.26
same,glycan array binding signal (z-score),[20],-0.536
same,glycan array binding signal (z-score),[21],-0.084
same,glycan array binding signal (z-score),[22],-0.33
same,glycan array binding signal (z-score),[23],0.027
same,glycan array binding signal (z-score),[24],-0.758
same,glycan array binding signal (z-score),[25],-0.321
same,glycan array binding signal (z-score),[26],-0.173
same,glycan array binding signal (z-score),[27],0.541
same,glycan array binding signal (z-score),[28],2.43
same,glycan array binding signal (z-score),[29],0.015
same,glycan array binding signal (z-score),[30],0.226
same,glycan array binding signal (z-score),[31],-0.128
same,glycan array binding signal (z-score),[32],0.27
same,glycan array binding signal (z-score),[33],-0.248
same,glycan array binding signal (z-score),[34],-0.346
same,glycan array binding signal (z-score),[35],-0.717
same,glycan array binding signal (z-score),[36],-0.538
same,glycan array binding signal (z-score),[37],-0.602
same,glycan array binding signal (z-score),[38],0.618
same,glycan array binding signal (z-score),[39],-0.381
same,glycan array binding signal (z-score),[40],-0.32
same,glycan array binding signal (z-score),[41],1.29
same,glycan array binding signal (z-score),[42],-0.676
same,glycan array binding signal (z-score),[43],2.01
same,glycan array binding signal (z-score),[44],0.419
same,glycan array binding signal (z-score),[45],0.016

# Some of the entries so far, as tab-separated lines:
binder	measurement	setting	value
B1	glycan array binding signal (z-score)	[40]	-0.32
same	glycan array binding signal (z-score)	[41]	1.29
same	glycan array binding signal (z-score)	[42]	-0.676
